Laboratory results reported in article PMC4642342.

The chains behind the UniProt entries cited, without tags or fusion partners. Where a name states a change or a piece, a line headed by the entry shows the natural chain unless it says otherwise.
UniProt Q16665: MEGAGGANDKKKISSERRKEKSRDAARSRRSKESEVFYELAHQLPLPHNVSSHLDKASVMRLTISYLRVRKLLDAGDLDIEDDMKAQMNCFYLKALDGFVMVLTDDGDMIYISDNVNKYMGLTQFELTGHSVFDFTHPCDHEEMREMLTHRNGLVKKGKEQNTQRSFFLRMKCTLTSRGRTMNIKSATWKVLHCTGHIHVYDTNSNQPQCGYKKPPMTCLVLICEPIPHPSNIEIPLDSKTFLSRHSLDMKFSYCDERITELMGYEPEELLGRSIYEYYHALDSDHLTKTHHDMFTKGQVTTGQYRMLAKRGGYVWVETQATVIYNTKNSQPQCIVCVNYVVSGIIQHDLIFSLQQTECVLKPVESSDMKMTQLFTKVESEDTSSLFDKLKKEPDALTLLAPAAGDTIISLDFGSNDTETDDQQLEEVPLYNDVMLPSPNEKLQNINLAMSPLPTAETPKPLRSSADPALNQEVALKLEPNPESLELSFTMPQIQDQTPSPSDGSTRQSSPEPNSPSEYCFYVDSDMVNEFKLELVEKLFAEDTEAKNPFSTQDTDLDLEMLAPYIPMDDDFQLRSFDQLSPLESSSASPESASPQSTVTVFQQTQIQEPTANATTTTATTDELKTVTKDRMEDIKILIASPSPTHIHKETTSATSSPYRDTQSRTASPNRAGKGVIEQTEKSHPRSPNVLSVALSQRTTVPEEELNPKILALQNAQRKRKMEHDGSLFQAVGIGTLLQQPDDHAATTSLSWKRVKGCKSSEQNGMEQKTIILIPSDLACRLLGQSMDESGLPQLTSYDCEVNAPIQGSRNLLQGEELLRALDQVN
UniProt Q96BA8: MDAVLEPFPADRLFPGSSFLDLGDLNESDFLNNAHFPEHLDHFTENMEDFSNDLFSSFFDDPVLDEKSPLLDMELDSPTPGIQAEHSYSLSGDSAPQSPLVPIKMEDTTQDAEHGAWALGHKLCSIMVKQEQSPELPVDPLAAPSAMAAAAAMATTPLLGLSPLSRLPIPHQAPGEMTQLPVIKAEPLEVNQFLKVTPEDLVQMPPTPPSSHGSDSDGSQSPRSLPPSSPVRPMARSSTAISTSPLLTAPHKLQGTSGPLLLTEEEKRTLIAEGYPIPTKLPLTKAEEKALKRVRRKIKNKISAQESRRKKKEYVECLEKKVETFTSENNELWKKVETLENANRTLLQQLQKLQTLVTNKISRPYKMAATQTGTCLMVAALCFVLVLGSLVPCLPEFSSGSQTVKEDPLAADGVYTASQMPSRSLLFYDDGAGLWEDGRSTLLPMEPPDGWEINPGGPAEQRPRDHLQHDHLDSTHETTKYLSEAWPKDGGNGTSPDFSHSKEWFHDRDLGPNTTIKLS

Legend:
[1] = biological target: hypoxia-inducible factor-1α (HIF-1α), endogenous in hypoxia-exposed HEK293T cells (human (endogenous in HEK293T)) (UniProt Q16665); experiment: co-IP; HEK293T cells transfected with Flag-tagged OASIS-N and exposed to hypoxia; lysates precipitated with anti-Flag or anti-HIF-1α antibodies and rProtein G agarose, 4 °C overnight, washed in lysis buffer with 150 mM NaCl; blots with anti-HIF-1α and anti-OASIS
[2] = biological target: Flag-tagged OASIS N-terminus (Flag-OASIS-N) (human) (UniProt Q96BA8); experiment: co-IP; HEK293T cells transfected with HIF-1α P-A and FLAG-OASIS-N or FLAG-OASIS-N ΔbZIP; lysates precipitated with anti-Flag antibodies; blots with anti-HIF-1α and anti-OASIS
[3] = biological target: Flag-tagged OASIS N-terminus (Flag-OASIS-N) (human) (UniProt Q96BA8); experiment: co-IP; HEK293T cells transfected with Flag-tagged OASIS-N and exposed to hypoxia; lysates precipitated with anti-Flag or anti-HIF-1α antibodies and rProtein G agarose, 4 °C overnight, washed in lysis buffer with 150 mM NaCl; blots with anti-HIF-1α and anti-OASIS

## Flag-tagged OASIS N-terminus (Flag-OASIS-N) (from UniProt Q96BA8) (domain or fragment)
[1]
  binding: binds

## HIF-1α P402A/P564A (HIF-1α P-A; constitutively activated stabilized form) (from UniProt Q16665 1-826)
[2]
  binding: binds

## hypoxia-inducible factor-1α (HIF-1α), endogenous in hypoxia-exposed HEK293T cells (from UniProt Q16665 1-826)
[3]
  binding: binds

Results are given in words; binding and its absence hold for the method and conditions named. Binding seen in cells or lysates may run through a third protein. Binding can be weak; no strength is given.
